Measurements from PubChem BioAssay AID290 (DTP/NCI, 2004).
The list does not hold the whole screen: it gathers tests that were run many times, whatever their T/C, doses with no T/C, and many T/C values between a quarter and a half above the control. Other doses and runs of a compound stand elsewhere. T/C gives the treated animals as a percentage of the vehicle group. Schedules are NCI's codes, read here as Q, the interval in days (D) or hours (H), X, the number of doses. Some T/C values are followed by the survivors on the day toxicity was checked, most often the fifth; without a count, all were alive then. Some entries were tested several times; their values stand side by side, smallest first. Some entries give survivors of the animals treated and no T/C: the source holds a T/C of zero for them, seemingly a mark for toxic or unscored doses. Some doses without a T/C left all or most animals alive at the check, yet need not have been tolerated: the source hardly ever lists a survival T/C far under the control, and the zero likely stands for such cases as well. Survivors were counted at the toxicity check, usually on the fifth day, unless a day is given; later deaths do not show. Where survival is the endpoint, this PubChem deposit counts one and a half times the control or more as active, and values a quarter to a half above the control carry no call in these data; other NCI protocols may use other cut-offs.

Test system: mice, P1798 lymphosarcoma sc, survival or tumor weight T/C
Experiment: NCI In Vivo Anticancer Drug Screen. Data for tumor model P1798 Lymphosarcoma (subcutaneous) in unknown mice
Protocol: The antitumor activity of compounds was measured in mice bearing transplantable tumors. Survival or tumor size were measured and the results are expressed as the measurement made in the treated group (T) divided by the measurement made in the vehicle treated control group (C). The tumor model used in this assay is P1798 Lymphosarcoma (subcutaneous) in unknown mice

[1] = T/C endpoint: mean tumor weight, dose: 62.5 mg/kg/injection, schedule: Q01DX010 (ip), vehicle: carboxymethylcellulose (CMC), higher T/C = larger tumour
[2] = T/C endpoint: mean tumor weight, dose: 125.0 mg/kg/injection, schedule: Q01DX010 (ip), vehicle: carboxymethylcellulose (CMC), higher T/C = larger tumour

With `O=P1(N(CCCl)CCCl)NCCCO1` (stereo not drawn) the T/C (T/C endpoint: mean tumor weight, dose: 12.5 mg/kg/injection, schedule: Q01DX010 (ip), vehicle: saline, evaluated on day 14, higher T/C = larger tumour) was 45 [9 of 10 alive], 48 [9 of 10 alive], 63, 73, 79 [9 of 10 alive], 119, 126 % of control, the T/C (T/C endpoint: mean tumor weight, dose: 12.5 mg/kg/injection, schedule: Q01DX010 (ip), vehicle: saline, evaluated on day 20, higher T/C = larger tumour) was 95 % of control [7 of 10 alive] and the T/C (T/C endpoint: mean tumor weight, dose: 25.0 mg/kg/injection, schedule: Q01DX010 (ip), vehicle: saline, evaluated on day 14, higher T/C = larger tumour) was 21, 29, 30 [8 of 10 alive], 35, 58, 62, 65, 70 % of control. The T/C (T/C endpoint: mean tumor weight, dose: 25.0 mg/kg/injection, schedule: Q01DX010 (ip), vehicle: saline, evaluated on day 20, higher T/C = larger tumour) was 114 % of control, the T/C (T/C endpoint: mean tumor weight, dose: 50.0 mg/kg/injection, schedule: Q01DX010 (ip), vehicle: saline, evaluated on day 14, higher T/C = larger tumour) was 5 [9 of 10 alive], 23, 30 [7 of 10 alive], 38, 42, 74 % of control and the survivor count (T/C endpoint: mean tumor weight, dose: 50.0 mg/kg/injection, schedule: Q01DX010 (ip), vehicle: saline, higher T/C = larger tumour) was 3 of 10 and 6 of 10. The survivor count (T/C endpoint: mean tumor weight, dose: 53.0 mg/kg/injection, schedule: Q01DX011 (ip), vehicle: saline, higher T/C = larger tumour) was 1 of 10, the survivor count (T/C endpoint: mean tumor weight, dose: 100.0 mg/kg/injection, schedule: Q01DX010 (ip), vehicle: saline, higher T/C = larger tumour) was 1 of 10 and 3 of 10 and the survivor count (T/C endpoint: median survival time, dose: 100.0 mg/kg/injection, schedule: Q01DX010 (ip), vehicle: saline, higher T/C = longer survival) was 10 of 10. The T/C (T/C endpoint: median survival time, dose: 200.0 mg/kg/injection, schedule: Q01DX001 (ip), vehicle: saline, higher T/C = longer survival) was 129 % of control, the survivor count (T/C endpoint: median survival time, dose: 200.0 mg/kg/injection, schedule: Q01DX010 (ip), vehicle: saline, higher T/C = longer survival) was 6 of 10 and the survivor count (T/C endpoint: median survival time, dose: 400.0 mg/kg/injection, schedule: Q01DX001 (ip), vehicle: saline, higher T/C = longer survival) was 5 of 5.
With `Nc1nc(SCc2ccccc2)c2[nH]cnc2n1` the survivor count (T/C endpoint: mean tumor weight, dose: 18.75 mg/kg/injection, schedule: Q01DX010 (ip), vehicle: carboxymethylcellulose (CMC), higher T/C = larger tumour) was 5 of 10, the survivor count (T/C endpoint: mean tumor weight, dose: 37.5 mg/kg/injection, schedule: Q01DX010 (ip), vehicle: carboxymethylcellulose (CMC), higher T/C = larger tumour) was 0 of 10 and the survivor count (T/C endpoint: mean tumor weight, dose: 75.0 mg/kg/injection, schedule: Q01DX010 (ip), vehicle: carboxymethylcellulose (CMC), higher T/C = larger tumour) was 0 of 10.
In the case of `N[C@@H](Cc1ccc(N(CCCl)CCCl)cc1)C(=O)O`, the survivor count (T/C endpoint: mean tumor weight, dose: 8.0 mg/kg/injection, schedule: Q01DX011 (ip), vehicle: carboxymethylcellulose (CMC), higher T/C = larger tumour) was 0 of 10, the survivor count (T/C endpoint: mean tumor weight, dose: 12.0 mg/kg/injection, schedule: Q01DX011 (ip), vehicle: carboxymethylcellulose (CMC), higher T/C = larger tumour) was 0 of 10 and the survivor count (T/C endpoint: median survival time, dose: 3.0 mg/kg/injection, schedule: Q01DX010 (sc), vehicle: saline, higher T/C = longer survival) was 10 of 10. For the same compound, the survivor count (T/C endpoint: median survival time, dose: 6.0 mg/kg/injection, schedule: Q01DX010 (sc), vehicle: saline, higher T/C = longer survival) was 10 of 10 and the survivor count (T/C endpoint: median survival time, dose: 12.0 mg/kg/injection, schedule: Q01DX010 (sc), vehicle: saline, higher T/C = longer survival) was 10 of 10.
For `COc1cc2c(c(OC)c1OC)-c1ccc(OC)c(=O)cc1[C@@H](NC(C)=O)CC2`, the survivor count (T/C endpoint: mean tumor weight, dose: 1.0 mg/kg/injection, schedule: Q01DX010 (ip), vehicle: saline, higher T/C = larger tumour) was 0 of 10.
With `c1ccc(CNc2ncnc3[nH]ncc23)cc1` the survivor count (T/C endpoint: mean tumor weight, dose: 31.25 mg/kg/injection, schedule: Q01DX010 (ip), vehicle: carboxymethylcellulose (CMC), higher T/C = larger tumour) was 0 of 10, the survivor count [1] was 0 of 10 and the survivor count [2] was 0 of 10.
In the case of `CN(Cc1cnc2nc(N)nc(N)c2n1)c1ccc(C(=O)N[C@@H](CCC(=O)O)C(=O)O)cc1`, the T/C (T/C endpoint: mean tumor weight, dose: 0.5 mg/kg/injection, schedule: Q01DX010 (ip), vehicle: other, evaluated on day 14, higher T/C = larger tumour) was 31 [9 of 10 alive], 44, 54, 59, 61 [9 of 10 alive], 81 % of control, the T/C (T/C endpoint: mean tumor weight, dose: 0.62 mg/kg/injection, schedule: Q01DX010 (ip), vehicle: other, evaluated on day 14, higher T/C = larger tumour) was 27, 29, 30 [8 of 10 alive], 38 [9 of 10 alive], 68, 70 % of control and the T/C (T/C endpoint: mean tumor weight, dose: 0.62 mg/kg/injection, schedule: Q01DX010 (ip), vehicle: other, evaluated on day 20, higher T/C = larger tumour) was 81 % of control [8 of 10 alive]. The T/C (T/C endpoint: mean tumor weight, dose: 1.0 mg/kg/injection, schedule: Q01DX010 (ip), vehicle: other, evaluated on day 14, higher T/C = larger tumour) was 2 [9 of 10 alive], 13 [9 of 10 alive], 21, 35 [9 of 10 alive], 40 [8 of 10 alive], 60 % of control, the T/C (T/C endpoint: mean tumor weight, dose: 1.25 mg/kg/injection, schedule: Q01DX010 (ip), vehicle: other, evaluated on day 14, higher T/C = larger tumour) was 7, 7 [7 of 10 alive], 18 [8 of 10 alive], 18 [9 of 10 alive], 20, 55 % of control [8 of 10 alive] and the survivor count (T/C endpoint: mean tumor weight, dose: 1.25 mg/kg/injection, schedule: Q01DX010 (ip), vehicle: other, higher T/C = larger tumour) was 1 of 10. The survivor count (T/C endpoint: mean tumor weight, dose: 1.8 mg/kg/injection, schedule: Q01DX010 (sc), vehicle: other, higher T/C = larger tumour) was 1 of 10, the T/C (T/C endpoint: mean tumor weight, dose: 2.0 mg/kg/injection, schedule: Q01DX010 (ip), vehicle: other, evaluated on day 14, higher T/C = larger tumour) was 5, 8 [9 of 10 alive], 11, 17 % of control [8 of 10 alive] and the survivor count (T/C endpoint: mean tumor weight, dose: 2.1 mg/kg/injection, schedule: Q01DX011 (ip), vehicle: carboxymethylcellulose (CMC), higher T/C = larger tumour) was 1 of 10. The T/C (T/C endpoint: mean tumor weight, dose: 2.5 mg/kg/injection, schedule: Q01DX010 (ip), vehicle: other, evaluated on day 14, higher T/C = larger tumour) was 3 [7 of 10 alive] and 9 % of control [9 of 10 alive], the survivor count (T/C endpoint: mean tumor weight, dose: 2.5 mg/kg/injection, schedule: Q01DX010 (ip), vehicle: other, higher T/C = larger tumour) was 0 of 10 and the survivor count (T/C endpoint: mean tumor weight, dose: 3.0 mg/kg/injection, schedule: Q01DX010 (sc), vehicle: other, higher T/C = larger tumour) was 0 of 10. For the same compound, the survivor count (T/C endpoint: mean tumor weight, dose: 5.0 mg/kg/injection, schedule: Q01DX010 (ip), vehicle: other, higher T/C = larger tumour) was 0 of 10, the survivor count (T/C endpoint: median survival time, dose: 2.5 mg/kg/injection, schedule: Q01DX010 (ip), vehicle: sodium bicarbonate, higher T/C = longer survival) was 10 of 10 and the survivor count (T/C endpoint: median survival time, dose: 4.0 mg/kg/injection, schedule: Q04DX007 (ip), vehicle: sodium bicarbonate, higher T/C = longer survival) was 10 of 10. For the same compound, the survivor count (T/C endpoint: median survival time, dose: 5.0 mg/kg/injection, schedule: Q01DX010 (ip), vehicle: sodium bicarbonate, higher T/C = longer survival) was 10 of 10, the T/C (T/C endpoint: median survival time, dose: 8.0 mg/kg/injection, schedule: Q04DX007 (ip), vehicle: saline, higher T/C = longer survival) was 125 % of control and the survivor count (T/C endpoint: median survival time, dose: 8.0 mg/kg/injection, schedule: Q04DX007 (ip), vehicle: sodium bicarbonate, higher T/C = longer survival) was 10 of 10. The survivor count (T/C endpoint: median survival time, dose: 16.0 mg/kg/injection, schedule: Q04DX007 (ip), vehicle: sodium bicarbonate, higher T/C = longer survival) was 10 of 10, the survivor count (T/C endpoint: median survival time, dose: 32.0 mg/kg/injection, schedule: Q04DX007 (ip), vehicle: sodium bicarbonate, higher T/C = longer survival) was 9 of 9 and the survivor count (T/C endpoint: median survival time, dose: 64.0 mg/kg/injection, schedule: Q04DX007 (ip), vehicle: saline, higher T/C = longer survival) was 10 of 10. For the same compound, the survivor count (T/C endpoint: median survival time, dose: 64.0 mg/kg/injection, schedule: Q04DX007 (ip), vehicle: sodium bicarbonate, higher T/C = longer survival) was 8 of 8 and the survivor count (T/C endpoint: median survival time, dose: 128.0 mg/kg/injection, schedule: Q04DX007 (ip), vehicle: saline, higher T/C = longer survival) was 10 of 10.
`S=P(N1CC1)(N1CC1)N1CC1` was tested, and the survivor count (T/C endpoint: mean tumor weight, dose: 5.0 mg/kg/injection, schedule: Q01DX010 (ip), vehicle: saline, higher T/C = larger tumour) was 2 of 10, the survivor count (T/C endpoint: median survival time, dose: 6.0 mg/kg/injection, schedule: Q01DX010 (sc), vehicle: water, higher T/C = longer survival) was 10 of 10 and the survivor count (T/C endpoint: median survival time, dose: 12.0 mg/kg/injection, schedule: Q01DX010 (sc), vehicle: water, higher T/C = longer survival) was 10 of 10.
In the case of `N#CCSc1ncnc2nc[nH]c12`, the survivor count (T/C endpoint: mean tumor weight, dose: 100.0 mg/kg/injection, schedule: Q01DX010 (ip), vehicle: carboxymethylcellulose (CMC), higher T/C = larger tumour) was 1 of 10 and the survivor count (T/C endpoint: mean tumor weight, dose: 200.0 mg/kg/injection, schedule: Q01DX010 (ip), vehicle: carboxymethylcellulose (CMC), higher T/C = larger tumour) was 0 of 10.
With `CN(C)c1nc(N(C)C)nc(N(C)C)n1` the T/C (T/C endpoint: mean tumor weight, dose: 125.0 mg/kg/injection, schedule: Q01DX010 (ip), vehicle: carboxymethylcellulose (CMC), evaluated on day 14, higher T/C = larger tumour) was 126 % of control, the survivor count (T/C endpoint: mean tumor weight, dose: 1000.0 mg/kg/injection, schedule: Q01DX010 (ip), vehicle: carboxymethylcellulose (CMC), higher T/C = larger tumour) was 5 of 10 and the survivor count (T/C endpoint: mean tumor weight, dose: 2000.0 mg/kg/injection, schedule: Q01DX010 (ip), vehicle: carboxymethylcellulose (CMC), higher T/C = larger tumour) was 0 of 10.
For `CN(C)CC(=O)c1ccc(O)c(O)c1`, the T/C (T/C endpoint: mean tumor weight, dose: 62.5 mg/kg/injection, schedule: Q01DX010 (ip), vehicle: saline, evaluated on day 14, higher T/C = larger tumour) was 142 % of control, the T/C (T/C endpoint: mean tumor weight, dose: 125.0 mg/kg/injection, schedule: Q01DX010 (ip), vehicle: saline, evaluated on day 14, higher T/C = larger tumour) was 141 % of control and the T/C (T/C endpoint: mean tumor weight, dose: 500.0 mg/kg/injection, schedule: Q01DX010 (ip), vehicle: saline, evaluated on day 14, higher T/C = larger tumour) was 131 % of control.
In the case of `CC(CCC(C)OS(C)(=O)=O)OS(C)(=O)=O` (stereo not drawn), the survivor count (T/C endpoint: mean tumor weight, dose: 80.0 mg/kg/injection, schedule: Q01DX010 (ip), vehicle: carboxymethylcellulose (CMC), higher T/C = larger tumour) was 0 of 10.
With `CCn1cnc2c(=S)nc[nH]c21` the survivor count [2] was 2 of 10.
For `CCCSc1ncnc2nc[nH]c12`, the survivor count [1] was 3 of 10, the survivor count (T/C endpoint: mean tumor weight, dose: 250.0 mg/kg/injection, schedule: Q01DX010 (ip), vehicle: carboxymethylcellulose (CMC), higher T/C = larger tumour) was 0 of 10 and 3 of 10 and the survivor count (T/C endpoint: mean tumor weight, dose: 500.0 mg/kg/injection, schedule: Q01DX010 (ip), vehicle: carboxymethylcellulose (CMC), higher T/C = larger tumour) was 0 of 10.
